Assay results reported in article PMC11005723, “Development of Complementary Photo‐arginine/lysine to Promote Discovery of Arg/Lys hPTMs Interactomes” (Advanced Science, 2024).
This continues a long series; more values of the same kind are listed elsewhere.

System: HEK293T nuclear lysates
Assay: SILAC‐based pull‐down proteomics H4K5me1/H4K5 (probes 6/5)
Type: binding, human

For “probe 6: H4K5me peptide probe with photo‐arginine R(dz) and K(biotin) (SGRGKGGKGLGKGGK; photo-arginine R(dz) at 3; monomethyl-lysine at 5; K(biotin) at 15)”, the “C6 log (H4K5me/H4K5)” value (protein CHD4 (A0A2R8Y425), run C6) was 0.0526, the “B6 log2 (H4K5me/H4K5)” value (protein CHD8 (Q9HCK8), SILAC run B6) was -0.7918 and the “C6 log (H4K5me/H4K5)” value (protein CHD8 (Q9HCK8), SILAC run C6) was -0.539. For the same substance, the “B6 log2 (H4K5me/H4K5)” value (protein CHORDC1 (Q9UHD1), SILAC run B6) was -0.3252, the “C6 log (H4K5me/H4K5)” value (protein CHORDC1 (Q9UHD1), SILAC run C6) was -0.1742 and the “B6 log2 (H4K5me/H4K5)” value (protein CKAP5 (Q14008), SILAC run B6) was -0.2391. The “C6 log (H4K5me/H4K5)” value (protein CKAP5 (Q14008), SILAC run C6) was -0.06611, the “B6 log2 (H4K5me/H4K5)” value (protein CMAS (Q8NFW8), SILAC run B6) was -0.2964 and the “C6 log (H4K5me/H4K5)” value (protein CMAS (Q8NFW8), SILAC run C6) was -0.2024. The “B6 log2 (H4K5me/H4K5)” value (protein CORO1C (Q9ULV4), run B6) was 0.02026, the “C6 log (H4K5me/H4K5)” value (protein CORO1C (Q9ULV4), run C6) was 0.01128 and the “B6 log2 (H4K5me/H4K5)” value (protein CPNE3 (O75131), run B6) was 0.002092. The “C6 log (H4K5me/H4K5)” value (protein CPNE3 (O75131), run C6) was -0.07952, the “B6 log2 (H4K5me/H4K5)” value (protein CPOX (P36551), SILAC run B6) was -0.357 and the “C6 log (H4K5me/H4K5)” value (protein CPOX (P36551), SILAC run C6) was -0.3607. The “B6 log2 (H4K5me/H4K5)” value (protein CPSF2 (Q9P2I0), run B6) was 0.02363, the “C6 log (H4K5me/H4K5)” value (protein CPSF2 (Q9P2I0), run C6) was -0.07048 and the “B6 log2 (H4K5me/H4K5)” value (protein CPSF7 (F5H669), run B6) was 0.09419. For the same substance, the “C6 log (H4K5me/H4K5)” value (protein CPSF7 (F5H669), run C6) was -0.1277, the “B6 log2 (H4K5me/H4K5)” value (protein CSNK2B (P67870), run B6) was 0.003837 and the “C6 log (H4K5me/H4K5)” value (protein CSNK2B (P67870), run C6) was -0.1748. The “B6 log2 (H4K5me/H4K5)” value (protein CSTF1 (Q05048), run B6) was 0.09689, the “C6 log (H4K5me/H4K5)” value (protein CSTF1 (Q05048), run C6) was 0.02339 and the “B6 log2 (H4K5me/H4K5)” value (protein CTBP2 (P56545), SILAC run B6) was -0.2045. The “C6 log (H4K5me/H4K5)” value (protein CTBP2 (P56545), SILAC run C6) was 0.1511, the “B6 log2 (H4K5me/H4K5)” value (protein CTTN (Q14247), run B6) was 0.043 and the “C6 log (H4K5me/H4K5)” value (protein CTTN (Q14247), run C6) was 0.03518. For the same substance, the “B6 log2 (H4K5me/H4K5)” value (protein CXXC1 (Q9P0U4), SILAC run B6) was -0.2086, the “C6 log (H4K5me/H4K5)” value (protein CXXC1 (Q9P0U4), SILAC run C6) was -0.3937 and the “B6 log2 (H4K5me/H4K5)” value (protein D6R9P3 HNRNPAB, run B6) was 0.5392. For the same substance, the “C6 log (H4K5me/H4K5)” value (protein D6R9P3 HNRNPAB, run C6) was 0.5392, the “B6 log2 (H4K5me/H4K5)” value (protein DARS (P14868), SILAC run B6) was -0.4811 and the “C6 log (H4K5me/H4K5)” value (protein DARS (P14868), SILAC run C6) was -0.009973. The “B6 log2 (H4K5me/H4K5)” value (protein DCAF8 (V9GY54), run B6) was 0.05924, the “C6 log (H4K5me/H4K5)” value (protein DCAF8 (V9GY54), run C6) was -0.3216 and the “B6 log2 (H4K5me/H4K5)” value (protein DDB1 (Q16531), SILAC run B6) was -0.3208. For the same substance, the “C6 log (H4K5me/H4K5)” value (protein DDB1 (Q16531), SILAC run C6) was -0.002132, the “B6 log2 (H4K5me/H4K5)” value (protein DDOST (A0A0C4DGS1), run B6) was 0.0291 and the “C6 log (H4K5me/H4K5)” value (protein DDOST (A0A0C4DGS1), run C6) was -0.1546. The “B6 log2 (H4K5me/H4K5)” value (protein DDX17 (A0A1X7SBZ2), run B6) was 0.03459, the “C6 log (H4K5me/H4K5)” value (protein DDX17 (A0A1X7SBZ2), run C6) was 0.09966 and the “B6 log2 (H4K5me/H4K5)” value (protein DDX23 (Q9BUQ8), SILAC run B6) was -0.645. For the same substance, the “C6 log (H4K5me/H4K5)” value (protein DDX23 (Q9BUQ8), SILAC run C6) was 0.07117, the “B6 log2 (H4K5me/H4K5)” value (protein DDX52 (Q9Y2R4), run B6) was 0.01416 and the “C6 log (H4K5me/H4K5)” value (protein DDX52 (Q9Y2R4), run C6) was -0.154. The “B6 log2 (H4K5me/H4K5)” value (protein DEK (P35659), run B6) was 0.08378, the “C6 log (H4K5me/H4K5)” value (protein DEK (P35659), run C6) was 0.01506 and the “B6 log2 (H4K5me/H4K5)” value (protein DENR (O43583), SILAC run B6) was -0.3915. For the same substance, the “C6 log (H4K5me/H4K5)” value (protein DENR (O43583), SILAC run C6) was -0.324, the “B6 log2 (H4K5me/H4K5)” value (protein DFFA (O00273), SILAC run B6) was -0.7905 and the “C6 log (H4K5me/H4K5)” value (protein DFFA (O00273), SILAC run C6) was 0.3141. For the same substance, the “B6 log2 (H4K5me/H4K5)” value (protein DHX9 (Q08211), run B6) was 0.03982, the “C6 log (H4K5me/H4K5)” value (protein DHX9 (Q08211), run C6) was 0.0187 and the “B6 log2 (H4K5me/H4K5)” value (protein DIDO1 (Q9BTC0), SILAC run B6) was -0.657. The “C6 log (H4K5me/H4K5)” value (protein DIDO1 (Q9BTC0), SILAC run C6) was -0.05402, the “B6 log2 (H4K5me/H4K5)” value (protein DIEXF (Q68CQ4), SILAC run B6) was -0.2279 and the “C6 log (H4K5me/H4K5)” value (protein DIEXF (Q68CQ4), SILAC run C6) was -0.1955. For the same substance, the “B6 log2 (H4K5me/H4K5)” value (protein DKC1 (O60832), run B6) was -0.003383, the “C6 log (H4K5me/H4K5)” value (protein DKC1 (O60832), run C6) was 0.05653 and the “B6 log2 (H4K5me/H4K5)” value (protein DLGAP5 (Q15398), run B6) was -0.003472. The “C6 log (H4K5me/H4K5)” value (protein DLGAP5 (Q15398), run C6) was 0.1996, the “B6 log2 (H4K5me/H4K5)” value (protein DNAJA1 (P31689), SILAC run B6) was -0.2792 and the “C6 log (H4K5me/H4K5)” value (protein DNAJA1 (P31689), SILAC run C6) was -0.1772. The “B6 log2 (H4K5me/H4K5)” value (protein DNAJC2 (Q99543), SILAC run B6) was -0.3923, the “C6 log (H4K5me/H4K5)” value (protein DNAJC2 (Q99543), SILAC run C6) was -0.3831 and the “B6 log2 (H4K5me/H4K5)” value (protein DNM2 (P50570), run B6) was -0.02166. The “C6 log (H4K5me/H4K5)” value (protein DNM2 (P50570), run C6) was 0.0843, the “B6 log2 (H4K5me/H4K5)” value (protein DR1 (Q01658), SILAC run B6) was -0.8115 and the “C6 log (H4K5me/H4K5)” value (protein DR1 (Q01658), SILAC run C6) was -0.5699. For the same substance, the “B6 log2 (H4K5me/H4K5)” value (protein DYNC1I2 (Q13409), SILAC run B6) was -0.2787, the “C6 log (H4K5me/H4K5)” value (protein DYNC1I2 (Q13409), SILAC run C6) was -0.5038 and the “B6 log2 (H4K5me/H4K5)” value (protein DYNC1LI1 (Q9Y6G9), SILAC run B6) was -0.3983. The “C6 log (H4K5me/H4K5)” value (protein DYNC1LI1 (Q9Y6G9), SILAC run C6) was -0.2367, the “B6 log2 (H4K5me/H4K5)” value (protein DYNLL1 (P63167), run B6) was 0.005615 and the “C6 log (H4K5me/H4K5)” value (protein DYNLL1 (P63167), run C6) was -0.116. For the same substance, the “B6 log2 (H4K5me/H4K5)” value (protein E9PBF6 LMNB1, run B6) was 1.205, the “C6 log (H4K5me/H4K5)” value (protein E9PBF6 LMNB1, run C6) was 1.205 and the “B6 log2 (H4K5me/H4K5)” value (protein E9PID8 CSTF2, run B6) was 0.6287. For the same substance, the “C6 log (H4K5me/H4K5)” value (protein E9PID8 CSTF2, run C6) was 0.6287, the “B6 log2 (H4K5me/H4K5)” value (protein E9PKG1 PRMT1, run B6) was 0.1316 and the “C6 log (H4K5me/H4K5)” value (protein E9PKG1 PRMT1, run C6) was 0.02146. The “B6 log2 (H4K5me/H4K5)” value (protein E9PLT0 CSDE1, run B6) was 0.4269, the “C6 log (H4K5me/H4K5)” value (protein E9PLT0 CSDE1, run C6) was -0.09917 and the “B6 log2 (H4K5me/H4K5)” value (protein E9PNW0 NAP1L4, run B6) was 0.2756. The “C6 log (H4K5me/H4K5)” value (protein E9PNW0 NAP1L4, run C6) was 0.24, the “B6 log2 (H4K5me/H4K5)” value (protein EBNA1BP2 (Q99848), SILAC run B6) was -0.2103 and the “C6 log (H4K5me/H4K5)” value (protein EBNA1BP2 (Q99848), SILAC run C6) was -0.1347. The “B6 log2 (H4K5me/H4K5)” value (protein EEF2 (P13639), run B6) was 0.0343, the “C6 log (H4K5me/H4K5)” value (protein EEF2 (P13639), run C6) was -0.01287 and the “B6 log2 (H4K5me/H4K5)” value (protein EFTUD2 (Q15029), run B6) was 0.08927. For the same substance, the “C6 log (H4K5me/H4K5)” value (protein EFTUD2 (Q15029), run C6) was 0.05893, the “B6 log2 (H4K5me/H4K5)” value (protein EIF2S3 (P41091), SILAC run B6) was -0.4812 and the “C6 log (H4K5me/H4K5)” value (protein EIF2S3 (P41091), SILAC run C6) was -0.2686. The “B6 log2 (H4K5me/H4K5)” value (protein EIF4A3 (P38919), run B6) was 0.05017, the “C6 log (H4K5me/H4K5)” value (protein EIF4A3 (P38919), run C6) was 0.07576 and the “B6 log2 (H4K5me/H4K5)” value (protein EIF4G1 (E7EX73), SILAC run B6) was -0.2663. For the same substance, the “C6 log (H4K5me/H4K5)” value (protein EIF4G1 (E7EX73), SILAC run C6) was -0.0385, the “B6 log2 (H4K5me/H4K5)” value (protein EIF6 (B7ZBH1), run B6) was 0.04135 and the “C6 log (H4K5me/H4K5)” value (protein EIF6 (B7ZBH1), run C6) was 0.2467. For the same substance, the “B6 log2 (H4K5me/H4K5)” value (protein ELAVL1 (Q15717), run B6) was 0.06776, the “C6 log (H4K5me/H4K5)” value (protein ELAVL1 (Q15717), run C6) was -0.02088 and the “B6 log2 (H4K5me/H4K5)” value (protein ELF2 (Q15723), SILAC run B6) was -0.8729. For the same substance, the “C6 log (H4K5me/H4K5)” value (protein ELF2 (Q15723), SILAC run C6) was -0.9053, the “B6 log2 (H4K5me/H4K5)” value (protein ESCO2 (Q56NI9), SILAC run B6) was -0.5515 and the “C6 log (H4K5me/H4K5)” value (protein ESCO2 (Q56NI9), SILAC run C6) was -0.4491. For the same substance, the “B6 log2 (H4K5me/H4K5)” value (protein ETF1 (B7Z7P8), run B6) was 0.07104, the “C6 log (H4K5me/H4K5)” value (protein ETF1 (B7Z7P8), run C6) was -0.1331 and the “B6 log2 (H4K5me/H4K5)” value (protein EXOSC10 (Q01780), SILAC run B6) was -0.8849. The “C6 log (H4K5me/H4K5)” value (protein EXOSC10 (Q01780), SILAC run C6) was -0.02506, the “B6 log2 (H4K5me/H4K5)” value (protein EZR (E7EQR4), run B6) was 0.03943 and the “C6 log (H4K5me/H4K5)” value (protein EZR (E7EQR4), run C6) was 0.1462. The “B6 log2 (H4K5me/H4K5)” value (protein F8VVM2 SLC25A3, run B6) was 0.1434 and the “C6 log (H4K5me/H4K5)” value (protein F8VVM2 SLC25A3, run C6) was 0.03702.
